No constants are given. Whether binding was seen depends on the method and setting. In cells and extracts the contact can be indirect. Some results given as binding are weak or reduced against the parent protein; the word gives no strength. Blank lines part the entries; values can stand above or below the binder they belong to.
Experiments:
[1] = target: mouse NRP1 wild type with Flag (NRP1 WT), overexpressed in C3H10T1/2 cells (mouse) (UniProt P97333); experiment: co-IP; lysates of ov-NRP1 WT (Flag) and ov-cont cells (C3H10T1/2 in control or differentiation medium; HEK 293T) incubated overnight at 4 °C with anti-Flag M2 affinity gel, washed five times, eluted with Flag peptide, blotted with anti-NRP1 and anti-JIP4
[2] = target: mouse NRP1 wild type with Flag (NRP1 WT), overexpressed in HEK 293T cells (mouse) (UniProt P97333); experiment: as above

- binding [1]: binds
B1: C-Jun N-terminal kinase (JNK)-interacting protein 4 (JIP4), endogenous in C3H10T1/2 cells (protein, UniProt Q58A65 1-1321)
chain: MELEDGVVYQEEPGGSGAVMSERVSGLAGSIYREFERLIGRYDEEVVKELMPLVVAVLENLDSVFAQDQEHQVELELLRDDNEQLITQYEREKALRKHAEEKFIEFEDSQEQEKKDLQTRVESLESQTRQLELKAKNYADQISRLEEREAELKKEYNALHQRHTEMIHNYMEHLERTKLHQLSGSDQLEATAHSRIRKERPISLGIFPLPAGDGLLTPDTQKGGETPGSEQWKFQELSQPRSHTSLKVSHSPEPPKAVEQEDELSDISQGGSKATTPASTANSDVSAIPPDTPSKEDNEGFVKGTDTSNKSEISKHIEVQVAQETRNVSTESGENEEKSEVQAIIESTPELDMDKDLSGYKGSSTPTKGIENKAFDRNTESLFEELSSAGSGLIGDVDEGADLLGMGREVENLILENTQLLETKNALNVVKNDLIAKVDELTCEKDVLQGELEAVKQAKLKLEDKNRELEEELRKARAEAEDARQKAKDDDDSDIPTAQRKRFTRVEMARVLMERNQYKERLMELQEAVRWTEMIRASRENPAMQEKKRSSIWQFFSRLFSSSSNATKKPEPPVNLKYNAPTSHVTPSVKKRSSTLSQLPGDKSKAFDFLSEETEASLASRREQKREQYRQVKAHVQKEDGRVQAFGWSLPQKYKQVANGQGETKMKNLPVPVYLRPLDEKDASMKLWCAVGVNLSGGKTRDGGSVVGASVFYKDIAGLDTEGSKQRSASQSSLDKLDQELKEQQKEFKNQEELSSQVWICTSTHSTTKVIIIDAVQPGNILDSFTVCNSHVLCIASVPGARETDYPAGEELSESGQVDKASLCGSMTSNSSAEMDSLLGGITVVGCSTEGLTGAATSPSTNGASPVIEKPPEMETENSEVDENIPTAEEATEATEGNAGSTEDTVDISQPGVYTEHVFTDPLGVQIPEDLSPVFQSSNDSDVYKDQISVLPNEQDLAREEAQKMSSLLPTMWLGAQNGCLYVHSSVAQWRKCLHSIKLKDSILSIVHVKGIVLVALADGTLAIFHRGVDGQWDLSNYHLLDLGRPHHSIRCMTVVHDKVWCGYRNKIYVVQPKAMKIEKSFDAHPRKESQVRQLAWVGDGVWVSIRLDSTLRLYHAHTYQHLQDVDIEPYVSKMLGTGKLGFSFVRITALMVSCNRLWVGTGNGVIISIPLTETNKTSGTPGNRPGSVIRVYGDENSDKVTPGTFIPYCSMAHAQLCFHGHRDAVKFFVAVPGQVISPQSSSGGADLTADKAGSSAQEPSSQTPLKSMLVISGGEGYIDFRMGDEGGESELLGEDLPLEPSVTKAERSHLIVWQVMCGNE

- binding [2]: binds
B2: C-Jun N-terminal kinase (JNK)-interacting protein 4 (JIP4), endogenous in HEK 293T cells (protein, UniProt O60271 1-1321)
chain: MELEDGVVYQEEPGGSGAVMSERVSGLAGSIYREFERLIGRYDEEVVKELMPLVVAVLENLDSVFAQDQEHQVELELLRDDNEQLITQYEREKALRKHAEEKFIEFEDSQEQEKKDLQTRVESLESQTRQLELKAKNYADQISRLEEREAELKKEYNALHQRHTEMIHNYMEHLERTKLHQLSGSDQLESTAHSRIRKERPISLGIFPLPAGDGLLTPDAQKGGETPGSEQWKFQELSQPRSHTSLKVSNSPEPQKAVEQEDELSDVSQGGSKATTPASTANSDVATIPTDTPLKEENEGFVKVTDAPNKSEISKHIEVQVAQETRNVSTGSAENEEKSEVQAIIESTPELDMDKDLSGYKGSSTPTKGIENKAFDRNTESLFEELSSAGSGLIGDVDEGADLLGMGREVENLILENTQLLETKNALNIVKNDLIAKVDELTCEKDVLQGELEAVKQAKLKLEEKNRELEEELRKARAEAEDARQKAKDDDDSDIPTAQRKRFTRVEMARVLMERNQYKERLMELQEAVRWTEMIRASRENPAMQEKKRSSIWQFFSRLFSSSSNTTKKPEPPVNLKYNAPTSHVTPSVKKRSSTLSQLPGDKSKAFDFLSEETEASLASRREQKREQYRQVKAHVQKEDGRVQAFGWSLPQKYKQVTNGQGENKMKNLPVPVYLRPLDEKDTSMKLWCAVGVNLSGGKTRDGGSVVGASVFYKDVAGLDTEGSKQRSASQSSLDKLDQELKEQQKELKNQEELSSLVWICTSTHSATKVLIIDAVQPGNILDSFTVCNSHVLCIASVPGARETDYPAGEDLSESGQVDKASLCGSMTSNSSAETDSLLGGITVVGCSAEGVTGAATSPSTNGASPVMDKPPEMEAENSEVDENVPTAEEATEATEGNAGSAEDTVDISQTGVYTEHVFTDPLGVQIPEDLSPVYQSSNDSDAYKDQISVLPNEQDLVREEAQKMSSLLPTMWLGAQNGCLYVHSSVAQWRKCLHSIKLKDSILSIVHVKGIVLVALADGTLAIFHRGVDGQWDLSNYHLLDLGRPHHSIRCMTVVHDKVWCGYRNKIYVVQPKAMKIEKSFDAHPRKESQVRQLAWVGDGVWVSIRLDSTLRLYHAHTYQHLQDVDIEPYVSKMLGTGKLGFSFVRITALMVSCNRLWVGTGNGVIISIPLTETNKTSGVPGNRPGSVIRVYGDENSDKVTPGTFIPYCSMAHAQLCFHGHRDAVKFFVAVPGQVISPQSSSSGTDLTGDKAGPSAQEPGSQTPLKSMLVISGGEGYIDFRMGDEGGESELLGEDLPLEPSVTKAERSHLIVWQVMYGNE
